# According to PubChem BioAssay AID1347426 (Functional Genomics Laboratory (NCATS/FGL), 2020):
# The whole screen tested about 31,000 sequences, of which about 1,400 (4.5%) were called active.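 The calls were made as follows: active = median seed-adjusted z-score above 1 or below -1; inactive = the rest.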 Some of the results follow.
# Assay: Novel Modifiers of Survival Motor Neuron (SMN) Protein: Gene Identification via Genome-wide siRNA Screen;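 also: luminescence tracks full-length SMN protein made from the SMN2 reporter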
# Conditions: HEK293T SMN2-luciferase reporter, siRNA knockdown, 72 h; actives lie on both sides
# Method in brief: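 Steps: spot 1 pmol siRNA, add Lipofectamine RNAiMax in serum-free DMEM, seed HEK293T SMN2–luciferase reporter cells; incubate 72 h at 37 °C; add ONE-Glo; normalize luminescence to control siRNA, log10, MAD. Candidates: |MAD| > 1.0.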
row,Sequence,median seed-adjusted z-score
1,CAACCAGAAGUAUCCAGGATT against GALNT8,inactive: -0.283
2,GCUACUUAUGUGAACGUAATT against MET,inactive: 0.55
3,CACGAAAUCAUGCAAAUCATT against RPL17,inactive: -0.13
4,AGAAGUUCAUGGUCGGAGATT against SULT1A1,inactive: -0.26
5,GACCCGUUUAUACAACAAATT against MX2,inactive: -0.0346
6,AGUGGAAGUUUACAAUAAUTT against KIF25,inactive: -0.0031
7,GGCGAAGGUUUAACGAUAATT against ZNF337,inactive: 0.104
8,GGCCGCUUCCUUAAUCAUATT against SETDB2,inactive: 0.417
9,GAACUGGAAAGUUUGGACATT against HHEX,inactive: -0.428
10,GAGCACAUCCUAUAUCAAATT against KATNAL1,inactive: -0.0327
11,CCUCUACCCUUAGUUCACATT against ZNF93,inactive: 0.502
12,CUGCCGACCAGAUUGAAGATT against MYL4,inactive: -0.388
13,GGUUAGGCAUGACAUUGCATT against CYP2R1,inactive: -0.981
14,CCGGUUGUUUUACUGAAUATT against THEX1,inactive: -0.423
15,GCUUUGAUGUGAUUCACCUTT against PRKAG3,active: -1.03
16,CAAUAUCCCUACCACUGAATT against SKIP,inactive: 0.804
17,GCACCAGCAUUAGAUGUCATT against ESAM,inactive: 0.314
18,GAAUUCAGCAUGACCGAUATT against GABPA,active: 1.43
19,GGCUUGAGAGCUUACAUCATT against PPP2R5C,active: 1.14
20,GCUUUGUAGAAUUUGCAGATT against TRNAU1AP,inactive: 0.52
21,GCAUCGUCUUUGACAUUUUTT against SHROOM2,inactive: 0.11
22,GCUGCUCCCGGAAAUGCAATT against ISOC2,inactive: -0.599

row,Sequence,median seed-adjusted z-score
1,CAACAGUGCCUUACAUUGATT against PRSS36,inactive: 0.589
2,GCAUCGAGAUGGACACGCUTT against LAMA5,inactive: 0.229
3,CCAUGCCCGAAGUUAUCAATT against PNLIPRP3,inactive: -0.287
4,CCAGUGAACUGUUAUCAAATT against PLAG1,inactive: 0.859
5,CGGCAGCUGAUAUUUUCAATT against RAX,inactive: -0.176
6,GCCUCUCGCAGAUAACCAATT against DUSP18,inactive: 0.13
7,GGGACUAUGUGCUAUGUCATT against SMO,inactive: -0.457
8,CCAAUAAGGACUACGCUGATT against DSG3,inactive: 0
9,AAUUGACUCCGGACAGAAATT against OSR2,inactive: 0.603
10,CAGCCUGUCUCGAUAUAGATT against NOP58,inactive: 0.101
11,AGAGGAUGCUUCGAGCUGATT against SHC2,inactive: -0.207
12,GCGUAAUUUGGACCUCUUUTT against ZDHHC21,inactive: 0.216
13,CCAUGUUACUUCUCUGAGUTT against AQP1,inactive: 0.274
14,ACAUCGUCCGACUACAUGATT against CAMK2A,inactive: 0.396
15,GGAUGGGUGAUGUAUGUCUTT against MALL,inactive: -0.477
16,GUCUCGUCCAAUUUCUAUATT against HOXA11,inactive: -0.222
17,AGACCUCGUGUAUAUAAAATT against GLIS1,inactive: 0.838
18,GCAACUUAAUUGCUUCCGATT against MTR,inactive: -0.0696
19,GCAAAGAGAGUUACUCUAUTT against HIST1H2BO,inactive: 0.634
20,CCACCUCAGUGCUCAAGAATT against CD81,inactive: 0
21,GCUUCCUGAUUGAGAUUCATT against CAV1,inactive: 0
22,CAAUGCCGCCUUCAACUUUTT against TACR2,inactive: 0.201

row,Sequence,median seed-adjusted z-score
1,GGACAGAGGCUAUUCAACATT against PRODH,inactive: 0.497
2,GAACCAUACUAUUUGCUUUTT against ATG5,inactive: -0.0597
3,CCAUGUCCAUCGUUGCUGUTT against FPR1,inactive: 0.0229
4,AGAUUGUAGUUGUGGAUCATT against CDH15,inactive: 0
5,CGCCCAUUCUUCAAUGUCATT against SIAH1,active: 1.5
6,GCAGUGUUUUUAAGUGAUATT against ZNF764,inactive: 0.184
7,AGAUCGCAGAGAACGUGGATT against STX1A,inactive: 0
8,GGCAUAAGAUAUUACCGUUTT against ABCA13,inactive: 0.238
9,CAAAAUCGAGAAGAAGUAUTT against TAGLN,inactive: 0.0485
10,ACACUACAUCGUUUAUUUUTT against FOXD4L2,inactive: -0.118
11,GGAUCUUCCUUAUUACUCUTT against UBE4A,inactive: -0.285
12,GCAACACCACAGUUUAUCATT against GABPB2,inactive: 0.441
13,GGAAUAGACUUUCGGGAAATT against RAB27B,inactive: 0
14,CUCCUUCAUUGGUAUGGAATT against ACTC1,inactive: 0
15,CAUCCGCAAGGCUCACAAUTT against ZBTB3,inactive: -0.0419
16,CCUUCUCUCUACGCGACUATT against ZBTB45,inactive: 0
17,CUCGUUAUCUUGAAAAGCATT against DHRS3,inactive: 0.175
18,GGCCCUGGGAAUUUACAGATT against MLN,inactive: -0.422
19,CAGUAUCUGUGAUACUCAUTT against CYP26A1,inactive: 0.0569
20,CCAAAGACCCGGACAAGCATT against OTP,inactive: 0.00717
21,AGACAGUUUGAGCACAUUUTT against ARL14,inactive: 0.417
22,GUGCUGCACUUAGCCCUGATT against AVPR1B,inactive: -0.423

# Part of the list above, with bars between the fields:
row | Sequence | median seed-adjusted z-score
20 | CCAAAGACCCGGACAAGCATT against OTP | inactive: 0.00717
21 | AGACAGUUUGAGCACAUUUTT against ARL14 | inactive: 0.417

# More results follow.

row,Sequence,median seed-adjusted z-score
1,GGAAUCUACUCUCACCAAATT against HYOU1,inactive: 0.0557
2,GCAGUAAGGUUGAUGCUCATT against AFM,inactive: 0
3,GCCUCUUCUUUUUGAUGUATT against MRLC2,inactive: -0.492
4,GUAUCUCUGUGCGCACAAATT against ZNF648,inactive: -0.000686
5,GUACUGCCUUGAUAACCCATT against PANK1,inactive: -0.329
6,GGAUUUCCAAGAGCAAGGATT against PTK7,inactive: 0.548
7,CCAUGAUUGUGAACAAUCUTT against CACYBP,inactive: -0.33
8,GAUCUACUGUGAUGCCGUUTT against L3MBTL2,inactive: -0.312
9,GGAACAUAAUGAUAAAGCATT against DNTTIP1,inactive: -0.33
10,CAGCCCUUCCUAAAAGUAATT against ABLIM2,inactive: -0.26
11,GGUGGUAUGGAGUCAGUGATT against SLC6A3,inactive: 0.457
12,GGUGCUACGUUAGACCAGUTT against SNRPA1,active: -2.71
13,CGGAUUAGAUGUUGCUAUATT against DUSP28,inactive: 0
14,GAGACAGAGUAGUCAAAUUTT against NT5E,inactive: 0.199
15,CGUUUCUCAUAAAGUGAUATT against HELT,inactive: -0.192
16,GAAACAACAUAUAUGUGAUTT against ZNF24,inactive: 0.388
17,GCCCUGACCAGGUUAUAGATT against IPO4,inactive: -0.0188
18,ACCGAGAGAUGGUAUAUGATT against SUPT4H1,active: -1.01
19,GCAAUCGGGUGGUAUCAUATT against COPS5,inactive: -0.124
20,GCAACUACGUGUUCUCUGATT against MUC5B,inactive: 0.141
21,GCUGGAGUCAGUUUAGUGATT against BCL2L1,inactive: 0.0801
22,GACUCUUCAGGCUUCAGAATT against ZFP91,inactive: 0.0597

# An excerpt of these results, tab-delimited.
row	Sequence	median seed-adjusted z-score
8	GAUCUACUGUGAUGCCGUUTT against L3MBTL2	inactive: -0.312
11	GGUGGUAUGGAGUCAGUGATT against SLC6A3	inactive: 0.457
14	GAGACAGAGUAGUCAAAUUTT against NT5E	inactive: 0.199
20	GCAACUACGUGUUCUCUGATT against MUC5B	inactive: 0.141

# (list continues)

row,Sequence,median seed-adjusted z-score
1,GCUUAUUCCUACUCCUAUUTT against PTPRT,inactive: -0.323
2,GUCCCGUGUUAAAAGAAAATT against PCSK7,inactive: 0
3,GGACAUUCAAUUCAAACCATT against SMAD4,inactive: 0.0746
4,CGGAGGUGUCUGAACUAAATT against TPM4,inactive: -0.407
5,CCAUAAUAUCUGCCGAACATT against MBNL1,inactive: 0.658
6,GGAUUGAACGGCCUCAUGATT against TRPC6,inactive: -0.527
7,AAGAGAUUUUUGUAACUGATT against BCL2L14,inactive: -0.859
8,UAUUAACCAUGGAACCUUATT against USP49,inactive: 0.549
9,CAAAACAGACCGAAAGAAATT against DBX2,inactive: 0.244
10,CUAGUGUGAUGGACAGACATT against RCOR2,inactive: -0.129
11,GCAGCAAGAAGUAACGGAATT against ADRBK2,inactive: 0.148
12,GCGGUUGGCACUUCGAGAATT against HRK,inactive: 0.217
13,CAAGACACCUGGGAAGAAATT against PTHLH,inactive: 0.00556
14,CCUCAGUUAUAAACAAGUATT against ZNF585A,inactive: -0.168
15,CGACCUUGGAGAACUACUATT against PROX2,inactive: -0.825
16,AAGACUCACUUGUUCAACATT against ZNF772,inactive: 0.817
17,GGAAUAUGGAACUCACAUATT against CELSR3,inactive: 0
18,GCCUUUAGCAGGUACUCAATT against ZNF429,inactive: 0.479
19,UGCAAAAAGUGCUGAAAUATT against MOCS2,inactive: 0.0327
20,CAGCUACCGGAAGCAGGAATT against CCL21,inactive: -0.227
